# Results taken from patent US20160193240A1, “Ulmoside-A: Useful For Prevention Or Cure Of Metabolic Diseases” (COUNCIL OF SCIENTIFIC & INDUSTRIAL RESEARCH, priority 2013, published 2016).
# For at least one compound, name, drawing or mass did not settle the structure.
# Tested on: wistar rats
# Experiment: Dexamethasone-induced skeletal muscle atrophy in rats (limb appearance, QRT-PCR of PGC-1α and atrogenes)
# Assay type: in vivo, rat
# Conditions: Dex alone
# Experimental: Following 15 d indicated treatment of rats, the skeletal muscle (pulled hind limb) were collected and RNA was extracted from them and QRT-PCR was performed in a Roche lightcycler 480 machine. Data represents mean+/−SEM from six animals done in triplicates. “a” statistical analysis between Vehicle and Dexamethasone-treated groups, “b”, statistical analysis between dex-treated and dex+ ULMA groups. P<0.05, as determined by student's t-test, n=6.
# Blood was collected from cardiac punctures.
# RNA was isolated from skeletal muscles using Trizol (according to manufacturers' protocol) and reverse transcribed as described above and either PGC-1α expression or muscle atrophy related genes (atrogenes) expression were examined.
smiles,measurement,value
"C[C@@H]1C[C@H]2[C@@H]3CCC4=CC(=O)C=C[C@]4(C)[C@@]3(F)[C@@H](O)C[C@]2(C)[C@@]1(O)C(=O)CO [Dex, Dexamethasone, reference compound]",skeletal muscle PGC-1α level,reduced
